According to PMC7914648 (Pharmaceuticals, 2021):

Experiments:
[1] = Recovery yields from spiked tissue homogenates and blood; parameters: species or system mouse; conditions: acetone/ACN 0.1% TFA extraction, HPLC-UV
[2] = general procedure: Fmoc solid-phase peptide synthesis; pre-loaded Wang resin (Fmoc-Gly-Wang; Fmoc-Tyr(tBu)-Wang); HBTU/HOBt/DIPEA; HATU/DIPEA for PAPTPL-I coupling; conditions: conjugation step

Row | Compound | recovery yield from blood ([1]; PAPTPL spiked into blood) [%] | recovery yield from heart ([1]; PAPTPL spiked into homogenate) [%] | recovery yield from kidneys ([1]; PAPTPL spiked into homogenate) [%] | recovery yield from liver ([1]; PAPTPL spiked into homogenate) [%] | recovery yield from spleen ([1]; PAPTPL spiked into homogenate) [%] | conjugation yield [2] [%]
1 | O=C([O-])C(F)(F)F.O=c1ccc2c(OCCCCOc3ccc(CCC[P+](c4ccccc4)(c4ccccc4)c4ccc(OCCCc5ccc(O)cc5)cc4)cc3)c3ccoc3cc2o1 [PAPTPL, (4-(3-(4-hydroxyphenyl)propoxy)phenyl)(3-(4-(4-((7-oxo-7H-furo[3,2-g]chromen-4-yl)oxy)butoxy)phenyl)propyl)diphenylphosphonium 2,2,2-trifluoroacetate] | 80 ± 8 | 57 ± 6 | 55 ± 1 | 82 ± 15 | 99 ± 5 | –
2 | PEPTIDE1{[PAPTPL-CO].I.G.R.K.K.R.R.Q.R.R.R.P.P.Q.G}$$$$V2.0 | – | – | – | – | – | 17
3 | PEPTIDE1{[PAPTPL-CO].I.T.F.F.Y.G.G.S.R.G.K.R.N.N.F.K.T.E.E.Y}$$$$V2.0 | – | – | – | – | – | 11

For some of these results: Strings that start with PEPTIDE1 are HELM notation: dots part the residues, brackets hold end groups and non-standard residues.
